These results are taken from paper PMC3769253.

No constants are given. Whether binding was seen depends on the method and setting. In cells and extracts the contact can be indirect. Binding calls can cover weak binding; strength is not graded here. Where a sequence is shown, tags or fusion partners need not be part of it.

The target of the experiment is T1, recombinant CagI (without tag), Δ32N (H. pylori 26695) (UniProt O25273).
T1 sequence: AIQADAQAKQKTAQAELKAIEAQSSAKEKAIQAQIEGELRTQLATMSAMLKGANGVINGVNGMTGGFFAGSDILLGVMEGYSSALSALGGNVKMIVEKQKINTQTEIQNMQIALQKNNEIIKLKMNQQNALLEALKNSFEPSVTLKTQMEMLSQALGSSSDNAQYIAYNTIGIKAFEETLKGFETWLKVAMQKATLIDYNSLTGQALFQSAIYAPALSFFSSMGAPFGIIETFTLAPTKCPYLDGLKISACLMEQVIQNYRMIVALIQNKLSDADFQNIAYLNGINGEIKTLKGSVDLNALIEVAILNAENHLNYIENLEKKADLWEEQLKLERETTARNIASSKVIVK
The experiment can be described thus: co-IP; soluble extract of E. coli BL-21(DE3) co-expressing the two recombinant proteins; anti-CagI, anti-CagH or anti-Hp1489 antibody; Western blotting.

In the case of MBP-CagH (H. pylori 26695), the binding entry was “binds”.

Consider “recombinant Hp1489 (GST-tag) (from UniProt O26022)”, for which the binding entry is recorded as “binds”.
